Literature values as cited in patent publication EP1377579B1 (Aventis Pharmaceuticals Inc., priority 2000, dated 2002).
pIC50: −log10 of the molar value.

Tested on: 60 human tumour cell lines
Conditions: read-out: average IC50 value, proliferation; average over 60 human tumour cell lines; cited from earlier work

For `CCC(CO)Nc1nc(NCc2ccccc2)c2ncn(C(C)C)c2n1` (stereo not shown) [roscovitine, 2-(1-ethyl-2-hydroxyethylamino)-6-benzylamino-9-isopropylpurine], the pIC50 is given as 4.80.
